This assay has as its target T1, caveolin-1 (mouse (endogenous in splenic CD4+ T cells)), P49817.
T1 chain: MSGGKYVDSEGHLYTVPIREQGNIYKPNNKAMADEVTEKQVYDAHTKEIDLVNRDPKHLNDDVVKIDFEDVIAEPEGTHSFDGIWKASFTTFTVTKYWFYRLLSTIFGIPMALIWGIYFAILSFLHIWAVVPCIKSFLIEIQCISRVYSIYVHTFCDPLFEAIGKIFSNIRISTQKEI
The experiment in a line: proximity ligation; Duolink In Situ Red kit, mouse CSK and rabbit Cav-1 primary antibodies; fixed, permeabilised CD4+ T cells from Spry2+/+ and Spry2-/- mice, unstimulated or anti-CD3/CD28-stimulated (10 min). The note with it: remark: other sources report otherwise.

Results are given in words; binding and its absence hold for the method and conditions named. In cells and extracts the contact can be indirect. Some binding calls cover weakened binding; strength is not graded here.

B1: CSK, P41241 1-450 (enzyme)
chain: MSAIQAAWPSGTECIAKYNFHGTAEQDLPFCKGDVLTIVAVTKDPNWYKAKNKVGREGIIPANYVQKREGVKAGTKLSLMPWFHGKITREQAERLLYPPETGLFLVRESTNYPGDYTLCVSCEGKVEHYRIMYHASKLSIDEEVYFENLMQLVEHYTTDADGLCTRLIKPKVMEGTVAAQDEFYRSGWALNMKELKLLQTIGKGEFGDVMLGDYRGNKVAVKCIKNDATAQAFLAEASVMTQLRHSNLVQLLGVIVEEKGGLYIVTEYMAKGSLVDYLRSRGRSVLGGDCLLKFSLDVCEAMEYLEGNNFVHRDLAARNVLVSEDNVAKVSDFGLTKEASSTQDTGKLPVKWTAPEALREKKFSTKSDVWSFGILLWEIYSFGRVPYPRIPLKDVVPRVEKGYKMDAPDGCPPAVYEVMKNCWHLDAATRPTFLQLREQLEHIKTHELHL
Turning to B1, the binding result is reported as “binds”.

These data come from article PMC7971865.
